From paper PMC3608633
No constants are given. Whether binding was seen depends on the method and setting. Some entries that bind do so weakly or less than the wild type. Tags and fused reporters may be left off the sequences shown.

Biological target: T1, recombinant mouse ALCAM protein (mouse) (UniProt Q61490)
T1 sequence: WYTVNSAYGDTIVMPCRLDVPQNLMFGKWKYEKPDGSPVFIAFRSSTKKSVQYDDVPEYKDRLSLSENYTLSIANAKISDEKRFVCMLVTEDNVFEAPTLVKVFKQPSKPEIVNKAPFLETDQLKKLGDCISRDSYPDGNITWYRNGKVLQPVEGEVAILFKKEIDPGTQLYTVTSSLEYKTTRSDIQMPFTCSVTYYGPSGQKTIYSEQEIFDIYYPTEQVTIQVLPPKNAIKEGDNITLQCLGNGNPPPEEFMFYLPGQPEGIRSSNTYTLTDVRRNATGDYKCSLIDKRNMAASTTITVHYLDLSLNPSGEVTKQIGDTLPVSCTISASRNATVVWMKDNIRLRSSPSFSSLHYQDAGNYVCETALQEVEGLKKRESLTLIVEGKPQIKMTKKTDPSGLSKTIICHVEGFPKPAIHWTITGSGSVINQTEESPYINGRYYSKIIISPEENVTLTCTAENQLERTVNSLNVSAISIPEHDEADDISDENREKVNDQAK
Assay: ELISA; recombinant mouse ALCAM adsorbed to a 96-well plate; CD62P-Fc added in solution; detected with AP-conjugated antibodies to human Fc fragment, absorbance at 405 nm; BSA as control; both purified

- binding: binds
B1: CD62P-Fc fusion protein (Fc fusion, UniProt Q01102 42-709)
chain: WTYNYSTKAYSWNNSRVFCRRHFTDLVAIQNKNEIAHLNDVIPFFNSYYWIGIRKINNKWTWVGTNKTLTEEAENWADNEPNNKKNNQDCVEIYIKSNSAPGKWNDEPCFKRKRALCYTASCQDMSCSNQGECIETIGSYTCSCYPGFYGPECEYVKECGKVNIPQHVLMNCSHPLGEFSFNSQCTFSCAEGYELDGPGELQCLASGIWTNNPPKCDAVQCQSLEAPPHGTMACMHPIAAFAYDSSCKFECQPGYRARGSNTLHCTGSGQWSEPLPTCEAIACEPPEIPIHGSMDCVPSTGTFGYNSSCTFLCAEGFVLKGNDAIQCADSGQWTAPAPFCEALQCPEFPVPSKAQVNCSDPFGTLTYQSVCSFSCDEGSLLVGASVIRCLATGHWNGAPPECQAVSCAPMLSPENGSMTCVQPLGNSTYKSTCQFMCDEGFYLSGPERLDCSPSGHWTGTPPTCEAIKCPGIFAPEQGNLDCSHVHGEFGVGSICHFSCNEDFELLGSENVECTVSGRWSAPPPTCKGITSLPAPAVRCPALTTPGQGTMSCQHHLGSFGPNTTCYFGCKTGFTLRGANSLRCRASGQWTAVTPMCRAVKCSELHMDTAVAMNCSNPWGNFSYGSTCTFQCPEGQSLNGSVRATCREDGHWSDAMPTCQAGTLTIQEA
